According to PubChem BioAssay AID504444 (National Center for Advancing Translational Sciences (NCATS), 2011):
The campaign covered roughly 360,000 compounds. About 7,500 (2.1%) were called active. The inconclusive results got no clear call from the source; some entries with a clear call stand among them for comparison. The call rests on the fitted dose curve; in most records, active means well fitted inhibition curve with a large enough effect; inconclusive means small, poorly fitted or top-dose-only effect, or effect the other way; inactive means flat fitted curve, though single readings scatter. Potencies of inconclusive entries are doubtful fits and often do not repeat.

Assay: Nrf2 qHTS screen for inhibitors; further: nearly all actives have a fitted effect of over 60% in size
Conditions: A549 ARE-Fluc reporter, luciferase luminescence, 18-24 h; series mostly up to 46 µM
In short: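 Nrf2 activity is the BugLite luminescence, read 15 min after reagent at room temperature, following CellTiter-Fluor cytotoxicity readout (30 min, 37C). Compound titrations were applied for 18-24 h to 5000 A549 ARE_Fluc cells/well in 5% FBS OPTI-MEM.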
Potency means the concentration at half of the fitted maximal effect.

Row | SMILES | Potency
1 | Cc1ccc(C(=O)Nc2cccc(-c3nc4ncccc4o3)c2)cc1 | inconclusive: 29.1 µM [falling, single point]
2 | COCc1c(C(=O)Nc2ccc3nc(N4CCOCC4)sc3c2)oc2ccccc12 | inconclusive: 29.1 µM [falling, single point]
3 | CCC1CCCCN1CCCNC(=O)CN1C(=O)COc2ccc(S(=O)(=O)N3CCC(C)CC3)cc21 (stereo not drawn) | inconclusive: 9.2 µM [activator, partial curve, poor fit]
4 | Cc1ccc(NS(=O)(=O)c2ccc3c(c2)CC(=O)N3C)cc1C | inconclusive: 9.2 µM [falling, partial curve, poor fit]
5 | COc1ccc(-c2cc(C(F)(F)F)nc(SCC(=O)Nc3sc4c(c3C#N)CCC4)n2)cc1 | inconclusive: 11.6 µM [falling, partial curve]
6 | COc1ccccc1NC(=S)N1CCN(C/C=C/c2ccccc2)CC1 | inactive
7 | CCc1cccc(NC(=O)CSc2ncc3c(n2)-c2ccc(Cl)cc2N(Cc2ccccc2)S3(=O)=O)c1 | inconclusive: 29.1 µM [falling, single point]
8 | CC1(c2ccc(Cl)cc2Cl)OCC(Cn2ccnc2)O1 (stereo not drawn) | inconclusive: 32.6 µM [falling, single point]
9 | CC(=O)Nc1ccc(S(=O)(=O)NC2CCSc3ccccc32)cc1 (stereo not drawn) | inconclusive: 29.1 µM [falling, single point]
10 | O=C(NNC(=S)Nc1ccccc1)c1cccs1 | inconclusive: 32.6 µM [activator, single point]
11 | Cc1ccc(C(=O)NCCc2ccccc2)cc1 | inconclusive: 8.2 µM [falling, partial curve, poor fit]
12 | CC(C)CCNC(=O)CCc1nnc2ccc(N3CCC(C)CC3)nn12 | inconclusive: 25.9 µM [falling, partial curve, poor fit]
13 | COc1ccc(/C=N/NC(=O)CCn2nnc3ccccc32)cc1 | inconclusive: 32.6 µM [falling, single point]
14 | COc1ccc(C2=Nn3c(nnc3-c3ccccc3Cl)SC2)cc1OC1CCCC1 | active: 16.4 µM
15 | CCc1ccc(NC(=O)CSc2nc(=O)n3cc(C)ccc3n2)cc1 | inconclusive: 5.8 µM [falling, partial curve, poor fit]
16 | Cc1nc(C2COc3ccccc3O2)sc1C(=O)O (stereo not drawn) | inconclusive: 29.1 µM [activator, single point]
17 | Cc1ccc(NC(=S)Nc2cccc3cnccc23)c(C)c1 | inactive
18 | Cc1cccc(C)c1OCc1cc(C(=O)N2CCCC2c2nonc2C)no1 (stereo not drawn) | inconclusive: 20.6 µM [falling, single point]
19 | COc1ccccc1/C=C/C(=O)c1ccc(NC(C)=O)cc1 | inconclusive: 29.1 µM [falling, single point]
20 | COc1cccc(CNc2ccc3c(c2)CCC3)c1 | inconclusive: 6.51 µM [activator, full curve]
21 | COc1ccc(C(=O)c2sc(Nc3ccccc3F)nc2N)cc1 | inconclusive: 25.9 µM [activator, single point]
22 | O=C(Nc1ccccc1N1CCCCC1)c1ccccc1F | inconclusive: 32.6 µM [falling, single point]

In the list so far, these contain an aryl methoxy group:
Row | SMILES | Potency
5 | COc1ccc(-c2cc(C(F)(F)F)nc(SCC(=O)Nc3sc4c(c3C#N)CCC4)n2)cc1 | inconclusive: 11.6 µM [falling, partial curve]
6 | COc1ccccc1NC(=S)N1CCN(C/C=C/c2ccccc2)CC1 | inactive
13 | COc1ccc(/C=N/NC(=O)CCn2nnc3ccccc32)cc1 | inconclusive: 32.6 µM [falling, single point]
14 | COc1ccc(C2=Nn3c(nnc3-c3ccccc3Cl)SC2)cc1OC1CCCC1 | active: 16.4 µM
19 | COc1ccccc1/C=C/C(=O)c1ccc(NC(C)=O)cc1 | inconclusive: 29.1 µM [falling, single point]
20 | COc1cccc(CNc2ccc3c(c2)CCC3)c1 | inconclusive: 6.51 µM [activator, full curve]
21 | COc1ccc(C(=O)c2sc(Nc3ccccc3F)nc2N)cc1 | inconclusive: 25.9 µM [activator, single point]

Going on with the list:

Row | SMILES | Potency
23 | Cc1cccc(Nc2nc(N)c([N+](=O)[O-])c(N3CCOCC3)n2)c1 | inconclusive: 32.6 µM [falling, single point]
24 | CN(CC(=O)Nc1ccc([N+](=O)[O-])cc1Br)Cc1c(F)cccc1Cl | inconclusive: 14.6 µM [falling, single point]
25 | Fc1cccc(-c2ncc(-c3ccccc3)o2)c1 | inconclusive: 13 µM [activator, partial curve]
26 | COc1cc(CNc2nc3ccccc3s2)cc(OC)c1OC | inconclusive: 7.31 µM [falling, partial curve, poor fit]
27 | Cc1nc2ccc(NC(=O)C3CCCCC3)cc2s1 | inconclusive: 5.8 µM [activator, partial curve, poor fit]
28 | CCC(=O)Nc1ccc(Nc2nc(C)c([N+](=O)[O-])c(Nc3ccc(NC(=O)CC)cc3)n2)cc1 | inconclusive: 23.1 µM [falling, single point]
29 | COc1ccc(-c2onc(C)c2-c2cscn2)c(O)c1 | inconclusive: 0.0517 µM [falling, full curve, poor fit]
30 | Cc1ccc(COc2cccc3c2CCN(Cc2ccc(F)cc2)C3=O)cc1 | inconclusive: 23.1 µM [falling, single point]
31 | CCC(=O)NC(c1cccs1)c1ccc2cccnc2c1O (stereo not drawn) | inconclusive: 29.1 µM [falling, single point]
32 | O=C(Nc1ccc2oc(-c3cccc4c(Br)cccc34)nc2c1)c1ccc(F)cc1 | inactive
33 | COc1cccc(N2CCN(C(=O)c3ccc4ccccc4c3)CC2)c1 | inactive
34 | Cc1cccc(C(=O)OCC(=O)c2ccc3c(c2)OCCO3)c1O | inconclusive: 14.6 µM [activator, partial curve]
35 | CCOc1cc(C(=O)Nc2cc(C)on2)cc(OCC)c1OCC | inactive
36 | CN(C)C=NC(=O)c1[nH]c2ccc(Cl)cc2c1-c1ccccc1 | inconclusive: 5.8 µM [falling, partial curve, poor fit]
37 | CNC(=S)N1N=C(c2ccc(C)cc2)CC1c1ccc(Br)cc1 (stereo not drawn) | inactive
38 | CC(NC(=O)Cc1ccc(S(=O)(=O)N2CCOCC2)s1)c1ccc(Cl)cc1Cl (stereo not drawn) | inconclusive: 23.1 µM [falling, single point]
39 | Cc1ccc(-c2csc3nc[nH]c(=S)c23)cc1 | inconclusive: 16.4 µM [falling, single point]
40 | CCC(=O)Nc1ccc(NC(=O)CSc2nc3cc4c(cc3cc2C)CCC4)cc1 | active: 23.1 µM
41 | COc1ccccc1CN=c1c([N+](=O)[O-])nn(-c2ccc3c(c2)OCCO3)n1O | inconclusive: 9.2 µM [activator, partial curve]
42 | CCCc1[nH]nc2c1C(c1ccsc1)C(C#N)=C(N)O2 (stereo not drawn) | inactive
43 | Cn1c(=O)c2c(-c3ccccc3)n3c(c2n(C)c1=O)C(c1ccccc1[N+](=O)[O-])Nc1ccccc1-3 (stereo not drawn) | inactive
